Counter-ions that a name gives are not always drawn. The list shows a part of the results. Most entries show no effect beyond the scatter of the controls.

The test deals with hPSC-derived cortical neurons (WA09). In words: nucleus area z-score vs screen plate; higher = larger nuclei (more mature). To be noted: 5 µM; treatment: days 7-14 after plating, readout day 21.
In turn, `CC(C(=O)O)c1cccc(Oc2ccccc2)c1` (stereo unspecified) [Fenoprofen calcium hydrate] displayed a nucleus area z-score of 0.336.
With `CN[C@H]1CN(c2ccc3c(=O)c(C(=O)O)cn(-c4nccs4)c3n2)C[C@@H]1OC` [Voreloxin (SNS-595)], the nucleus area z-score turned out to be 0.214.
Then `CN1CCN(C(=O)C2C(C(=O)O)[C@H]3CC[C@@H]2O3)CC1` (stereo partly specified), with 0.733.
As for `c1ccc2c(Oc3nc(Nc4ccc(N5CCOCC5)cc4)c4ncn(C5CCCCC5)c4n3)cccc2c1` [Purmorphamine], the figure is 0.0441; as for `C[C@H](NC(=O)C(=O)Nc1ccccc1C(C)(C)C)C(=O)N[C@@H](CC(=O)O)C(=O)COc1c(F)c(F)cc(F)c1F` [Emricasan], 2.08.
As for `NC(=O)c1cnc(N[C@@H]2CCCC[C@@H]2N)nc1Nc1cccc(-n2nccn2)c1`, the figure is 0.215.
In turn, `CC(C)c1cc(-c2n[nH]c(=O)n2-c2ccc3c(ccn3C)c2)c(O)cc1O` [Ganetespib (STA-9090)] displayed a nucleus area z-score of -5.13.
Then `NC(=O)CCCSc1nc(N)nc(-c2c(Cl)cc3c4c(cccc24)COC3)n1`, with -10.7.
Then `Cc1ccccc1C(C(=O)NC1CCCCC1)N(C(=O)Cn1ccnc1C)c1cccc(F)c1` (stereo unspecified), with -0.236.
As for `CCc1cc(C(N)=S)ccn1` [Ethionamide], the figure is 0.0195; as for `O=C(O)[C@H]1CSC(c2nc3ccc(O)cc3s2)=N1` [D-Luciferin], 1.4.
With `CCn1cc(C(=O)O)c(=O)c2cc(F)c(N3CCN(C)CC3)cc21` [Pefloxacin Mesylate], the nucleus area z-score was -0.562.
`C=CCc1ccc(O)c(-c2cc(CC=C)ccc2O)c1` [Magnolol] had a nucleus area z-score of 0.565.
Then `CCOc1cc(N2CCC(O)CC2)ccc1Nc1ncc2c(n1)N(C)c1ccccc1C(=O)N2C`, with -0.036; and `Cc1cc(NC(=O)C2=C(O)c3ccccc3S(=O)(=O)N2C)no1` [Isoxicam], with 0.611; and `CCCCCCCCCCC[C@@H](C[C@@H]1OC(=O)[C@H]1CCCCCC)OC(=O)[C@H](CC(C)C)NC=O` [Orlistat], with -0.154.
`N#Cc1ccc(-c2csc(NN=C3CCCC3)n2)cc1` [Remodelin] displayed a nucleus area z-score of 0.0691.
As for `O[C@H]1[C@H](O)[C@@H](O)[C@H](O)[C@@H](O)[C@H]1O` [i-Inositol], the figure is -0.207; as for `O=C(OCc1ccccc1)c1ccccc1` [Benzyl benzoate], 0.722; as for `N=C(N)NC(=N)N1CCOCC1` [Moroxydine HCl], 1.53.
Then `OCc1cc(C(O)CNCCCCCCOCCCCc2ccccc2)ccc1O` (stereo unspecified) [Salmeterol Xinafoate], with -0.375.
Then `CC1(C)O[C@@H]2C[C@H]3[C@@H]4CCC5=CC(=O)CC[C@]5(C)[C@@]4(F)[C@@H](O)C[C@]3(C)[C@]2(C(=O)CCl)O1` [Halcinonide], with 0.0143; and `O=C(O)c1cc(I)ccc1NC(=O)[C@H](Cc1ccccc1)NCc1ccccc1`, with 2.63; and `CC[C@H]1OC(=O)[C@H](C)[C@@H](O[C@H]2C[C@@](C)(OC)[C@@H](O)[C@H](C)O2)[C@H](C)[C@@H](O[C@@H]2O[C@H](C)C[C@H](N(C)C)[C@H]2O)[C@](C)(OC)C[C@@H](C)C(=O)[C@H](C)[C@@H](O)[C@]1(C)O` [Clarithromycin], with 1.43.
The compound `CCCCCCCCCCCCCCCCO` [1-Hexadecanol] registered a nucleus area z-score of 1.27.
Then `NC[C@@](O)(c1ccc(Cl)cc1)c1ccc(-c2cn[nH]c2)cc1`, with 0.25.

The values are drawn from the supplement of paper PMC11348887.
